The values below come from patent US20260139057A1 (University of California, published 2026).

Protein sequences, listed by entry. Tags and fused reporters are not part of them. Lines headed by an entry give the natural chain unless they say otherwise; changes in a name come on top.
UniProt P43406: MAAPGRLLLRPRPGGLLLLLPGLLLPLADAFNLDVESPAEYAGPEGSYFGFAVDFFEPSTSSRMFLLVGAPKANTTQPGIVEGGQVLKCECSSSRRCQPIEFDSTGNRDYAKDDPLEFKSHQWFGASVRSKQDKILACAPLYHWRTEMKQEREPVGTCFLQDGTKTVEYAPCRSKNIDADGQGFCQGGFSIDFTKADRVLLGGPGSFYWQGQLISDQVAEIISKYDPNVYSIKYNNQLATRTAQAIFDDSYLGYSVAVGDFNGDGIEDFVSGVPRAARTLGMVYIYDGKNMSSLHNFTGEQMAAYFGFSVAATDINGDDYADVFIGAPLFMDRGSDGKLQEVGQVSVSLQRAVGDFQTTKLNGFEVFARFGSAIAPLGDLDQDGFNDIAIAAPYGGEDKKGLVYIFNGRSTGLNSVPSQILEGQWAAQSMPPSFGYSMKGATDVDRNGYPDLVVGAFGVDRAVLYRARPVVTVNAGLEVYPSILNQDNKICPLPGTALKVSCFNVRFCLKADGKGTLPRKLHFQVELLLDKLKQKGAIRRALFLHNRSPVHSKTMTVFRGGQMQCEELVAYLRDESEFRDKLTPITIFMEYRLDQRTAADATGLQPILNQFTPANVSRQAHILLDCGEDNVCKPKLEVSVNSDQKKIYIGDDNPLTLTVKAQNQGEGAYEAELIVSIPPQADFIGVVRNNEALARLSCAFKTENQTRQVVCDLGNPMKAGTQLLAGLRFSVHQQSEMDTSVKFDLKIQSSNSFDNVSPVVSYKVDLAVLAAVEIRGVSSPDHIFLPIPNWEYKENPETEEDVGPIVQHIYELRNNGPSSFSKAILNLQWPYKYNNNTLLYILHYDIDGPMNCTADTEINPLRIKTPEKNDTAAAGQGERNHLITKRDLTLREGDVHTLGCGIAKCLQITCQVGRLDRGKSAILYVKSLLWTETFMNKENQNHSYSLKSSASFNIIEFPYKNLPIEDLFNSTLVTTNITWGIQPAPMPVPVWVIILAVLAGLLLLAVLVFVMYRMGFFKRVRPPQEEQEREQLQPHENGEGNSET
UniProt Q0VBD0: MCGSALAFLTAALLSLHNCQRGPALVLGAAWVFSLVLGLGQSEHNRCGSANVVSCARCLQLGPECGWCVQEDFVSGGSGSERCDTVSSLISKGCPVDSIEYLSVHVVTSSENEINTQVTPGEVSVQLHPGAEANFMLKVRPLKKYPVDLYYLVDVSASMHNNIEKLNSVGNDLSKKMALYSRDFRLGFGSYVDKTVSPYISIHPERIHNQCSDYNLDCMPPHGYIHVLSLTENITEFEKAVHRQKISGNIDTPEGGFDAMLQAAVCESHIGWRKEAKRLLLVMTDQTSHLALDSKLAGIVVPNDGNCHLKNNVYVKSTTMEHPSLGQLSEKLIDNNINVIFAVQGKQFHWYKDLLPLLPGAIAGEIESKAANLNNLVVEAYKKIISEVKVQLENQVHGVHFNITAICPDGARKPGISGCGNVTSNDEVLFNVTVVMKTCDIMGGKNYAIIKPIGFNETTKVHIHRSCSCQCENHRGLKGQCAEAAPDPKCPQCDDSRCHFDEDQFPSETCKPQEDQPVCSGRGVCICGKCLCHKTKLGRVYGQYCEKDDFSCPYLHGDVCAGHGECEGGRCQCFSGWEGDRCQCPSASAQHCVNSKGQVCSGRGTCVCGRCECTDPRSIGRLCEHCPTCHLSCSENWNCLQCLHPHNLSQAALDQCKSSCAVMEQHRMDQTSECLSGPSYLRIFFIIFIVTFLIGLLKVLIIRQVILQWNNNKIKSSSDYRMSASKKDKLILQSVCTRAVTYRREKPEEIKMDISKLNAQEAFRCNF

The target in experiment [1] is T1, mouse αvβ8 on β8 LLC cells (Lewis lung carcinoma cells transfected with mouse itgb8) (mouse) (UniProt P43406+Q0VBD0). Put plainly: flow cytometry on β8 LLC cells. (In general: A flow cytometer gives signals particle by particle.)
Experiment [2] has as its target T1, mouse αvβ8 on β8 LLC cells (Lewis lung carcinoma cells transfected with mouse itgb8) (mouse). As to the kind of experiment: flow cytometry on β8 LLC and mock LLC cells.
In experiment [3] the target is mouse αvβ8 on MC38 cells (mouse) (UniProt P43406+Q0VBD0). As to the kind of experiment: flow cytometry on MC38 cells, HuF12 followed by anti-mouse PE.

These are yes or no findings as the source states them, for the method shown. Some binding calls cover weakened binding; strength is not graded here.

B1: H4C8 RGD3, human IgG4 (antibody, V domains shown)
VH: QVQLVQSGAEVKKPGASVKVSCKVSGYTLTRQSMHWVRQAPGKGLEWMGRINTETGEPTYAQKFQGRVTMTQDTSTDTAYMELSSLRSEDTAVYFCAIFYYGRDTWGQGTTVTVSS
VL: EIVMTQSPATLSVSPGERVTLSCKSSQSLLGRGDLGRLKKNALAWYQQKPGQAPRLLIYWASTRETGVPARFSGSGSGTEFTLTISSLQSEDFAVYYCKQSYNLLSFGQGTKVEIKR
notes: also called H4C8 RGD3 IgG4
On to B1, for which the binding result in experiment [1] and in experiment [2] was “binds” in each case.

B2: H4C8 RGD1, human IgG4 (antibody, V domains shown)
VH: QVQLVQSGAEVKKPGASVKVSCKVSGYTLTRQSMHWVRQAPGKGLEWMGRINTETGEPTYAQKFQGRVTMTQDTSTDTAYMELSSLRSEDTAVYFCAIFYYGRDTWGQGTTVTVSS
VL: EIVMTQSPATLSVSPGERVTLSCKSSQSLLRRGDLATIHGNALAWYQQKPGQAPRLLIYWASTRETGVPARFSGSGSGTEFTLTISSLQSEDFAVYYCKQSYNLLSFGQGTKVEIKR
notes: also called H4C8 RGD1 IgG4
Take B2: the binding entry in experiment [1] and in experiment [2] was “binds” in each case.

B3: HuC6D4F12 (format not stated) (antibody, V domains shown)
VH: QIQLVQSGAEVKKPGASVKISCKASGYTFTKYSMHWVRQAPGQGLEWVARINTETGEPTFADDFRGRFTVTLDTSTSTAYLEIRSLRSDDTAVYFCAIFYYGRDTWGQGTTLTVSS
VL: EIVMTQSPATLSVSPGERVTMSCKSSQSLLHSRSRKNYLAWYQQKPGQAPRLLIYWASTRESGVPARFSGSGSGTEFTLTISSVQSEDFAVYYCKQSYNLLSFGQGTVLEIKR
notes: also called HuF12; huF12
Take B3: the binding entry in experiment [2] and in experiment [3] was “binds” throughout.

B4: HuC6D4 RGD3, mouse IgG2a (antibody, V domains shown)
VH: QIQLVQSGAEVKKPGASVKISCKASGYTFTDYSMHWVRQAPGQGLEWVARINTETGEPTFADDFRGRFTVTLDTSTSTAYLEIRSLRSDDTAVYFCAIFYYGRDTWGQGTTLTVSS
VL: EIVMTQSPATLSVSPGERVTMSCKSSQSLLGRGDLGRLKKNALAWYQQKPGQAPRLLIYWASTRESGVPARFSGSGSGTEFTLTISSVQSEDFAVYYCKQSYNLLSFGQGTVLEIKR
notes: Mouse IgG2a
For the molecule B4, the binding entry in experiment [2] is “binds”.

B5: F12 RGD1, human IgG4 (antibody, V domains shown)
VH: QIQLVQSGAEVKKPGASVKISCKASGYTFTKYSMHWVRQAPGQGLEWVARINTETGEPTFADDFRGRFTVTLDTSTSTAYLEIRSLRSDDTAVYFCAIFYYGRDTWGQGTTLTVSS
VL: DIVMTQSPSSLAVSAGEKVTMSCKSSQSLLRRGDLATIHGNALAWYQQKPGQSPRLLIYWASTRESGVPDRFTGSGSGTDFTLTISSVQAEDLAVYYCKQSYNLLSFGAGTKLELKA
In the case of B5, in experiment [2], the binding entry is “binds”.
